## Library screening results

The values are deposited in ChEMBL (CHEMBL3988442, “University of Dundee, Small-Polar-MMV Screening Library” (2021)).

A: 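Whole-cell assay for inhibitors of Mycobacterium tuberculosis growth, labelled Cornell in the record; the read-out is not stated. The concentration is filed as 10 mM, unlikely as a test dose, so the dose is not known. Higher means stronger inhibition (inferred from two other growth screens of the library). Size under these conditions: about 53,000 compounds, about 900 of them at 50% or above in at least one test.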
B: 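Assay on Mycobacterium tuberculosis, filed only as a heat shock assay from Cornell; the read-out is not stated. The concentration is filed as 10 mM, unlikely as a test dose, so the dose is not known. Direction is inferred from retests: higher values go with stronger inhibition. Size under these conditions: about 69,000 compounds, about 930 of them at 50% or above in at least one test.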

Each number is a percent effect as filed.
The controls that fix the scale are not given in the record; negative values are as filed.
The compounds are a random part of those screened.
A dash means the value is not listed here; it may have been measured.

SMILES,A,B
CCN(CC)CCn1ccnc1-c1cccc(O)c1,-,-36.04
CN(C)Cc1nc(C2(NC(=O)Nc3ccccc3)CCCC2)no1,-,-19.23
O=C(c1ccccc1Cl)N1CC[C@H](O)[C@@H](N2CCOCC2)CC1,-,-5.239
CN(Cc1ccccc1CNC(=O)C1CNC(=O)N1)C1CCCCC1 (stereo not shown),-5.712,-3.526
CCNC(=O)NC[C@H]1COCc2nc3cc(C)ccc3n21,30.39,5.486
O=C(NCCCN1CCOCC1)c1ccn(COc2ccc(Br)cc2)n1,-,-21.98
Cc1cc(CN(C)C2CCCN(Cc3noc(C)n3)C2)on1 (stereo not shown),-61.48,21.32
O=C(O)C(F)(F)F.O=C(O)C(F)(F)F.[H][C@@]12COC[C@]1(COc1cccnc1)CN(Cc1nccs1)C2,5.602,-12.53
Cc1nc(CC(=O)N2CCCCC2Cn2cccn2)cs1 (stereo not shown),-29.44,-25.65
Cc1ccc(C(=O)N2CCC3(CCCN(c4ncc(F)cn4)C3)C2)cn1.O=C(O)C(F)(F)F (stereo not shown),1.746,10.32
O=C(O)C(F)(F)F.[H][C@@]12COC[C@]1(CN1CCOCC1)CN(S(=O)(=O)CCC)C2,14.43,-25.76
COCCN(Cc1ccc(C)cc1)Cc1c[nH]cn1,11.76,-20.96
Cc1nc2ccc(C(=O)N3CC[C@H](O)[C@@H](N4CCOCC4)CC3)cc2[nH]1,-7.742,0.1469
COCCC(=O)N1CCC2(COCc3c(C)nc(NCC4CC4)nc32)C1 (stereo not shown),-,8.368
COc1ccccc1N1CCN(C(=O)CCn2ccc(C)n2)CC1,-,-26.51
Fc1ccc(OCCCNC2=NCCN2)cc1.I,-17.03,10.92
CC(=O)c1c(O)n(C)c2ccc(C)cc12,8.468,5.656
O=C(N[C@@H]1CN(Cc2ccc(F)c(F)c2)C[C@H]1O)c1cscn1,-,3.318
CC(C)S(=O)(=O)C(C)C(=O)NCc1ccccc1OCc1ccccc1 (stereo not shown),-0.5213,-8.788
CC(C)CCNC(=O)c1ccc(Cl)c(NS(C)(=O)=O)c1,14.56,-6.367
Cl.c1cnc2c(c1)cc([C@@H]1CCCO1)n2CCN1CCCCC1,7.303,-17.62
COC(=O)c1ncccc1N1CCCCC1,-,9.232
CC1(C)CC(N(Cc2cccnc2)Cc2cccc(F)c2)CC(C)(C)N1.O=C(O)CC(O)(CC(=O)O)C(=O)O,-,-20.05
CN1CCC(N(C)C[C@H]2CC[C@@H](Cc3ccc4occc4c3)O2)CC1,-,-39.9
CS(=O)(=O)N1CC2(CCN(Cc3ccccn3)C2)Cc2ccccc21 (stereo not shown),-,-24.95
[H][C@]12CN(C(=O)c3ccno3)CCN1C(=O)N(Cc1ccc(F)cc1)C2,-,-7.938
CC(C)CC(=O)N1CCCC1c1cc(CO)[nH]n1 (stereo not shown),11.54,7.004
CN(C)c1ncnc2c1CCN(CC1CCOC1)CC2.O=C(O)C(F)(F)F (stereo not shown),7.399,-1.073
COC(=O)c1cc(NC(=O)NCC2CCS(=O)(=O)C2)ccc1Cl (stereo not shown),-1.62,-12.76
CSc1ccc(C(=O)N2CCCC(Nc3ccc(F)cc3)C2)cc1 (stereo not shown),23.85,-1.931
CN1CCC(NC(=O)Nc2cnn(-c3ccccc3Cl)c2)C1=O (stereo not shown),-,1.317
c1ccc(-c2ncc(CN3CCCCC3CCn3cccn3)cn2)nc1 (stereo not shown),-,15.86
[H][C@@]12CN(C(=O)NC)C[C@]1(C(=O)NCC1CC1)CCCN2c1ncccn1,15.47,2.127
CCSc1cc(C(=O)NCCC(=O)Nc2ccccn2)ccn1,17.95,-9.427
O=c1cc(Cn2ccnc2)nc2n1CCCN(Cc1cccs1)C2,13.07,-23.58
COc1c(CNC2CCN(c3ncccn3)CC2)c(C)nn1C,-2.172,7.518
COc1ccccc1CN1CCCC2(Cc3ccccc3CNC2=O)C1 (stereo not shown),-,-5.185
[H][C@@]12CN(C(=O)c3ccnnc3)C[C@]1([H])C(=O)N(Cc1cccc(F)c1)C2,0.2942,-26.9
Cc1cc(-c2ccccc2Cl)nc(N)n1,22.73,-21.97
Cc1nc(C2CCCN2CCS(C)(=O)=O)no1 (stereo not shown),-,-10.8
COc1ccc(CN2CC3(CCNCC3)CCC2=O)c(F)c1F,-29.73,-28.81
COCC(=O)NCCC(=O)N1CCN(S(=O)(=O)c2cccc(Br)c2)CC1,-21.13,12.46
CCCn1cnc2c1CN(S(=O)(=O)c1ccc(F)cc1)[C@H](C(=O)OC)C2,-47.86,-39.51
O=C(CSCc1ccncc1)NCC1CCN(C2CC2)C1 (stereo not shown),43.8,32.63
O=C(Cc1cccs1)Nc1cnn(C2CCOC2)c1 (stereo not shown),-19.71,-18.04
Cc1nc(C)c(C)c(N2CCC(O)(c3ccc(F)cc3)CC2)n1,4.561,-25.7
CC(=O)N[C@@H]1CN(C(=O)c2cnc3ccccc3c2)C[C@H]1O,-15.85,-23.55
Cc1noc(C)c1CN1CC2(CCCCN2c2cncnc2)CC1=O (stereo not shown),8.722,5.715
CCN(CC)CCNC(=O)c1cc(OC)c2ccoc2c1,-,8.059
Cc1ccc(C2CN(Cc3cccc4[nH]ccc34)CCO2)nc1 (stereo not shown),-22.89,5.799
Cc1ccc(C(=O)N2Cc3c(CN4CCCCC4)nn(C)c3C2)cc1C.O=C(O)C(F)(F)F,-14.18,2.663
COCC(=O)N[C@H](C)c1onc(-c2ccc(F)cc2)c1C(=O)O,-0.3754,-10.13
Fc1cnc(N2CC[C@@H](N3CCOCC3)[C@@H]2Cc2cccnc2)nc1.O=C(O)C(F)(F)F.O=C(O)C(F)(F)F,-30.13,-28.34
COc1ccc2c(c1)C(C(=O)N(C)CCc1cnn(C)c1)CC(=O)N2 (stereo not shown),38.47,9.725
CCn1c(C2CCN(C(=O)COCC(F)(F)C(F)F)CC2)n[nH]c1=O,26.4,9.282
CCc1nnc(CN2CCCCC2Cn2cncn2)o1 (stereo not shown),-,-3.19
O=C(c1ccc(O)nc1)N1CCc2ccc(O)cc2C1,25.6,-4.092
N[C@@H]1c2ccccc2C2(CCN(C(=O)c3ccc(=O)[nH]c3)CC2)[C@H]1O,24.64,-10.67
Cc1oc(-c2nc(C#N)c(NC(C)C)o2)cc1S(=O)(=O)N1CCCCC1,17.61,-18.33
COCC(C)(O)CNC(=O)c1cc(-c2ccc(F)cc2)nn1C (stereo not shown),-19.32,10
Cc1ccc(CN2CC(C(=O)Nc3ccccc3)C3(CCOCC3)C2)o1.O=C(O)C(F)(F)F (stereo not shown),-21.83,-11.03
CC(C)COCC1CN(Cc2ccoc2)Cc2ncn(C)c21 (stereo not shown),-,-24.36
CCN1CCN(C)C2(CCN(C(=O)CC(F)(F)F)CC2)C1=O,6.354,11.07
Cc1cc(N2C[C@H](NC(=O)C3(C#N)CCOCC3)[C@@H](C(C)C)C2)ccn1,5.718,17.41
COCC(=O)Nc1ccccc1Sc1c(C)n[nH]c1C,7.121,-19.65
Cc1ccc(-c2ccnc(NCC3(N(C)C)CCOCC3)n2)c(C)n1,-18.49,-12.24

Some entries from above, unchanged:

SMILES,A,B
CS(=O)(=O)N1CC2(CCN(Cc3ccccn3)C2)Cc2ccccc21 (stereo not shown),-,-24.95
c1ccc(-c2ncc(CN3CCCCC3CCn3cccn3)cn2)nc1 (stereo not shown),-,15.86
COC(=O)c1cc(NC(=O)NCC2CCS(=O)(=O)C2)ccc1Cl (stereo not shown),-1.62,-12.76
CC(C)COCC1CN(Cc2ccoc2)Cc2ncn(C)c21 (stereo not shown),-,-24.36
COC(=O)c1ncccc1N1CCCCC1,-,9.232